Most values lie at the floor of the assay. Slopes are relative: functional sequences can read slightly below zero.
Tested on: Saccharomyces cerevisiae PS128 hsf1 delta, HSF1(1-493) fusion
Assay: growth estimate (transactivation domain function in HSF1 fusion, heat-shock survival) (a.u. (slope of normalised read count over time)); higher = stronger growth at 37°C, i.e. more transactivation activity
Settings: library: random library
Method: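 Random 60-nt DNA library encoding peptides of up to 20 aa, fused to the C-terminus of yeast HSF1 residues 1-493 (C-terminal TAD deleted) and expressed from the native HSF1 promoter on a CEN plasmid in hsf1-deleted S. cerevisiae PS128. Cells were selected at 37°C on -trp 5-FOA plates for 0, 2, 4, 6 and 8 days and amplicons were sequenced. Growth estimate is the slope of a robust linear fit of total-sum-normalised read counts (normalised to the first time point) over time, using at least 2 replicates. Sequences are classed functional (TAD activity) above a threshold of -0.13, set from stop-codon control sequences.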

| Substance | growth estimate |
| --- | --- |
| ICMKDRGALIRLFLSEAAPG | < -0.25 |
| ICNP | < -0.25 |
| ICRAKYGVLTQDC | -0.245 |
| ICRSSPGRQSRLCVE | < -0.25 |
| ICTSVKVLLGVHWLVRKQGA | < -0.25 |
| ICVG | < -0.25 |
| ICVS | < -0.25 |
| ICWEYPDGNRWGRHVPLVCH | < -0.25 |
| IDAGTLSPLKIESG | < -0.25 |
| IDASSEIEGVHTPDGSRDDV | < -0.25 |
| IDCGSGSQPWDGWVIAVSTG | < -0.25 |
| IDEADLWYKSNRKWVLLFQA | < -0.25 |
| IDHP | -0.245 |
| IDHVLRRATHRIQPCNHHRS | < -0.25 |
| IDKGGGTW | < -0.25 |
| IDKPPPHPGAVPGAGNSSGK | < -0.25 |
| IDLLMNCKLPGPLPLAPRRR | < -0.25 |
| IDLRAYRCNADARRLRHYHC | < -0.25 |
| IDQRRTKTGLFDIFYQWV | < -0.25 |
| IDRGGSPWV | < -0.25 |
| IDRIGYWKFPDNYVAVV | < -0.25 |
| IDRYVHELQRRPIFPSSRHS | < -0.25 |
| IEDGSSEPLLCRGSHSSDSH | < -0.25 |
| IEEGPTTRAPLDNRFRSTRA | < -0.25 |

| Substance | growth estimate |
| --- | --- |
| IEETGCIRTRSDV | < -0.25 |
| IEKAVTHTPNDINEMDMN | < -0.25 |
| IEKKVKPSTR | < -0.25 |
| IEKRGKSARVRHHHLPRRME | < -0.25 |
| IELMRRLPVTVTL | < -0.25 |
| IEMKRRIIFIKHT | < -0.25 |
| IEQGTISGPRALMTLSTTNP | < -0.25 |
| IEQRSCVTDELG | < -0.25 |
| IERLRGTRGDPKHWNLKYLI | < -0.25 |
| IERRPPV | < -0.25 |
| IESAPAMKGLCRRRAPQMGR | < -0.25 |
| IESDERQGVQPYYCEHAWSR | < -0.25 |
| IEVLSRLGGHSGTAISLYAA | < -0.25 |
| IFAGLRTPSSTLHSVS | -0.243 |
| IFAGSAPPSRIMGILFGGLP | < -0.25 |
| IFAGSCLLRVDTSRH | < -0.25 |
| IFAPIARYRRRVKGAKPGSS | < -0.25 |
| IFC | -0.183 |
| IFCFVPQCGEDTMFLVSCFE | < -0.25 |
| IFCYSTQQTAS | < -0.25 |
| IFE | < -0.25 |
| IFGGGKHVSMLRRPTRSTDA | < -0.25 |
| IFKRAMVMQNSQRLCGPLDP | < -0.25 |
| IFLKSQGPSSPAEGGSHGLL | < -0.25 |

| Substance | growth estimate |
| --- | --- |
| IFPEARGM | < -0.25 |
| IFRTRQRIRGTPTQVAFRYL | < -0.25 |
| IFSNRISTAFGDHRSVRRRH | < -0.25 |
| IFSPYAVSIISGPT | < -0.25 |
| IFSWDCTKNQQLIFGA | < -0.25 |
| IFTRIDFSS | < -0.25 |
| IFWDRLESRSSDGLCCEITR | < -0.25 |
| IGALQHRSG | < -0.25 |
| IGECGPSLYGLGLRTVKYSL | < -0.25 |
| IGFEIVSGFDLSVRWVVASG | < -0.25 |
| IGFRH | < -0.25 |
| IGG | -0.231 |
| IGGSRCQTFNPVVRSLRPGL | < -0.25 |
| IGGSSGGD | < -0.25 |
| IGGYAHLFREDSAGASRRQK | < -0.25 |
| IGI | < -0.25 |
| IGILPNSMHRWDLH | < -0.25 |
| IGILRVNLQTCSEADPRIHA | < -0.25 |
| IGIQTPCPESAAPLWSHPC | < -0.25 |
| IGIRESVAHCGAFTARGELA | < -0.25 |
| IGISHVRLSNHISNCVCGTW | < -0.25 |
| IGKDWAVGL | -0.203 |
| IGKGAYINYRRPIPTTCSDC | < -0.25 |
| IGKNLKWG | < -0.25 |

| Substance | growth estimate |
| --- | --- |
| IGKSTMGMFAPQLKRTLLYS | < -0.25 |
| IGLEIAPWLMQGGVCPTGKH | < -0.25 |
| IGLLRSLK | < -0.25 |
| IGLMGLWIWQPTSPGVADSG | < -0.25 |
| IGLMR | < -0.25 |
| IGLVEGGPPHCLLLSAVVES | < -0.25 |
| IGLVYEYPGLVYRAEFW | < -0.25 |
| IGNPRLLCHS | < -0.25 |
| IGNSRVAG | < -0.25 |
| IGPESGKIKHTNPVLLPSLT | < -0.25 |
| IGPFVAGSPILRIVGN | < -0.25 |
| IGPLIRFVCHLVEISGLMGK | < -0.25 |
| IGR | < -0.25 |
| IGRHGSNSPRRSDGQTDY | < -0.25 |
| IGRTTQGDRLGWLMQAWLSL | < -0.25 |
| IGRWSFATKGATGSNKMLIT | < -0.25 |
| IGSAIRERVPRVHTPRS | < -0.25 |
| IGSCPNTVKPQRIGKVLFQM | < -0.25 |
| IGSDCKLHGVAYEGSRSLRH | < -0.25 |
| IGSPCGALVSVSCLLGSVLS | < -0.25 |
| IGSPIDGLKFSLQ | < -0.25 |
| IGSRHRDRCGIGRRPFAHRC | < -0.25 |

Looked up above:
growth estimate with IDRIGYWKFPDNYVAVV reads < -0.25
growth estimate with IGILRVNLQTCSEADPRIHA reads < -0.25
growth estimate with IGRTTQGDRLGWLMQAWLSL reads < -0.25
growth estimate with IGSPIDGLKFSLQ reads < -0.25
growth estimate with IGGSRCQTFNPVVRSLRPGL reads < -0.25

Reference: the supplement of paper PMC5949888
